Some entries share one result that the patent states for a list of compounds.
Test system: TGF-β type II receptor (TβRII)
Test: TGF-β type II receptor (TβRII) mRNA expression in human articular chondrocytes
Assay type: cell-based
Conditions: human articular chondrocytes in hypoxia (5% v/v O2), with or without IL-1β, compound 10^−5M, 48 h

## CC(C(=O)OCCCCO[N+](=O)[O-])c1ccc(-c2ccccc2)c(F)c1 (stereo not drawn) [NO-Flurbiprofen, 2-fluoro-alpha-methyl[1,1′-biphenyl]-4-acetic acid 4-nitrooxybutylester]
  Increase of TβRII (TGF-β type II receptor mRNA): more than 100%
